Source: US20050153992A1, “Pyrrolopyrimidine thion derivatives” (TEIJIN PHARMA LIMITED, priority 2003, published 2005)
Some entries share one result that the patent states for a list of compounds.

Amino acid sequences for entries named in this document (tags omitted). A change or cut given only in a name is not applied to a line headed by its entry.
UniProt P49841: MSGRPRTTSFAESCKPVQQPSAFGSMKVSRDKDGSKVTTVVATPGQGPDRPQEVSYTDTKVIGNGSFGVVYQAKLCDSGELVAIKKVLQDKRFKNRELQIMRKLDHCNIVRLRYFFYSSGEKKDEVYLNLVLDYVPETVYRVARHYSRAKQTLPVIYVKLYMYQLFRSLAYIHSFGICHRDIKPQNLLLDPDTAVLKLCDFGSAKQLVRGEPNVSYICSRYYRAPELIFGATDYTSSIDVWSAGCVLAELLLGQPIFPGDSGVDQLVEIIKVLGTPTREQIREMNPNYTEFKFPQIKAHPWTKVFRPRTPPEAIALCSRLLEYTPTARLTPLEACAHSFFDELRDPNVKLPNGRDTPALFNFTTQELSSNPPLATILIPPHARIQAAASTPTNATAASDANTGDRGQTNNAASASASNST

Biological target: recombinant human GSK-3β (Homo sapiens, UniProt P49841)
Assay: Determination of Inhibition of GSK-3 Activity (phospho-glycogen synthase peptide-2, [γ-33P]ATP, scintillation counting)
Assay type: biochemical
Conditions: 20 μM ATP, 20 minutes at room temperature; read-out: GSK-3 inhibitor activity values (IC50 values)
Procedure: Determination of Inhibition of GSK-3 Activity
The reaction was initiated by adding 25 μL of phospho-glycogen synthase peptide-2 substrate solution [containing 6 μM phospho-glycogen synthase peptide-2, 20 μM ATP, 16 mM MOPS buffer (pH 7.0), 0.2 mM EDTA, 20 mM magnesium acetate, 0.1 μ Ci[γ-^33P]ATP (relative activity: approximately 110 TBq/mmol)] to 5 μL of each test compound using 5% dimethylsulfoxide as a solvent, and further adding 20 μL of GSK-3β enzyme solution [containing 10 mU recombinant human GSK-3β, 20 mM MOPS buffer (pH 7.0), 1 mM EDTA, 0.1% polyoxyethylene lauryl ether (23 Lauryl Ether; Brij 35), 5% glycerol, and 0.1% β-mercaptoethanol. After 20 minutes at room temperature, the reaction was terminated by the addition of the equivalent amount of 200 mM phosphoric acid solution. 90 μL of the reaction product was spotted onto a multiscreen PH plate (manufactured by Millipore) and washed with 100 mM phosphoric acid solution. The plate was dried, and 30 μL of MicroScint-O (manufactured by Packard BioScience) was added thereto. To evaluate inhibitory activity, cpm was counted using a scintillation counter. Here, Phospho GS Peptide 2 is an amino acid peptide having the following sequence: […]P)-Glu-Asp-Glu- Glu-Glu.
GSK-3 inhibitor activity values (IC50 values) of the compounds according to the present invention were measured by the method described above. […]

## O=C(NCCn1c(C2CC2)c(-c2cccnc2)c2nc[nH]c(=O)c21)C1CC1 [Compound 263]
  IC50: < 100 nM
